According to article PMC4993430:
These are yes or no findings as the source states them, for the method shown. In cells and extracts the contact can be indirect. Some entries that bind do so weakly or less than the wild type.

Amino acid sequences for entries named in this document (tags omitted).
UniProt Q9DE14: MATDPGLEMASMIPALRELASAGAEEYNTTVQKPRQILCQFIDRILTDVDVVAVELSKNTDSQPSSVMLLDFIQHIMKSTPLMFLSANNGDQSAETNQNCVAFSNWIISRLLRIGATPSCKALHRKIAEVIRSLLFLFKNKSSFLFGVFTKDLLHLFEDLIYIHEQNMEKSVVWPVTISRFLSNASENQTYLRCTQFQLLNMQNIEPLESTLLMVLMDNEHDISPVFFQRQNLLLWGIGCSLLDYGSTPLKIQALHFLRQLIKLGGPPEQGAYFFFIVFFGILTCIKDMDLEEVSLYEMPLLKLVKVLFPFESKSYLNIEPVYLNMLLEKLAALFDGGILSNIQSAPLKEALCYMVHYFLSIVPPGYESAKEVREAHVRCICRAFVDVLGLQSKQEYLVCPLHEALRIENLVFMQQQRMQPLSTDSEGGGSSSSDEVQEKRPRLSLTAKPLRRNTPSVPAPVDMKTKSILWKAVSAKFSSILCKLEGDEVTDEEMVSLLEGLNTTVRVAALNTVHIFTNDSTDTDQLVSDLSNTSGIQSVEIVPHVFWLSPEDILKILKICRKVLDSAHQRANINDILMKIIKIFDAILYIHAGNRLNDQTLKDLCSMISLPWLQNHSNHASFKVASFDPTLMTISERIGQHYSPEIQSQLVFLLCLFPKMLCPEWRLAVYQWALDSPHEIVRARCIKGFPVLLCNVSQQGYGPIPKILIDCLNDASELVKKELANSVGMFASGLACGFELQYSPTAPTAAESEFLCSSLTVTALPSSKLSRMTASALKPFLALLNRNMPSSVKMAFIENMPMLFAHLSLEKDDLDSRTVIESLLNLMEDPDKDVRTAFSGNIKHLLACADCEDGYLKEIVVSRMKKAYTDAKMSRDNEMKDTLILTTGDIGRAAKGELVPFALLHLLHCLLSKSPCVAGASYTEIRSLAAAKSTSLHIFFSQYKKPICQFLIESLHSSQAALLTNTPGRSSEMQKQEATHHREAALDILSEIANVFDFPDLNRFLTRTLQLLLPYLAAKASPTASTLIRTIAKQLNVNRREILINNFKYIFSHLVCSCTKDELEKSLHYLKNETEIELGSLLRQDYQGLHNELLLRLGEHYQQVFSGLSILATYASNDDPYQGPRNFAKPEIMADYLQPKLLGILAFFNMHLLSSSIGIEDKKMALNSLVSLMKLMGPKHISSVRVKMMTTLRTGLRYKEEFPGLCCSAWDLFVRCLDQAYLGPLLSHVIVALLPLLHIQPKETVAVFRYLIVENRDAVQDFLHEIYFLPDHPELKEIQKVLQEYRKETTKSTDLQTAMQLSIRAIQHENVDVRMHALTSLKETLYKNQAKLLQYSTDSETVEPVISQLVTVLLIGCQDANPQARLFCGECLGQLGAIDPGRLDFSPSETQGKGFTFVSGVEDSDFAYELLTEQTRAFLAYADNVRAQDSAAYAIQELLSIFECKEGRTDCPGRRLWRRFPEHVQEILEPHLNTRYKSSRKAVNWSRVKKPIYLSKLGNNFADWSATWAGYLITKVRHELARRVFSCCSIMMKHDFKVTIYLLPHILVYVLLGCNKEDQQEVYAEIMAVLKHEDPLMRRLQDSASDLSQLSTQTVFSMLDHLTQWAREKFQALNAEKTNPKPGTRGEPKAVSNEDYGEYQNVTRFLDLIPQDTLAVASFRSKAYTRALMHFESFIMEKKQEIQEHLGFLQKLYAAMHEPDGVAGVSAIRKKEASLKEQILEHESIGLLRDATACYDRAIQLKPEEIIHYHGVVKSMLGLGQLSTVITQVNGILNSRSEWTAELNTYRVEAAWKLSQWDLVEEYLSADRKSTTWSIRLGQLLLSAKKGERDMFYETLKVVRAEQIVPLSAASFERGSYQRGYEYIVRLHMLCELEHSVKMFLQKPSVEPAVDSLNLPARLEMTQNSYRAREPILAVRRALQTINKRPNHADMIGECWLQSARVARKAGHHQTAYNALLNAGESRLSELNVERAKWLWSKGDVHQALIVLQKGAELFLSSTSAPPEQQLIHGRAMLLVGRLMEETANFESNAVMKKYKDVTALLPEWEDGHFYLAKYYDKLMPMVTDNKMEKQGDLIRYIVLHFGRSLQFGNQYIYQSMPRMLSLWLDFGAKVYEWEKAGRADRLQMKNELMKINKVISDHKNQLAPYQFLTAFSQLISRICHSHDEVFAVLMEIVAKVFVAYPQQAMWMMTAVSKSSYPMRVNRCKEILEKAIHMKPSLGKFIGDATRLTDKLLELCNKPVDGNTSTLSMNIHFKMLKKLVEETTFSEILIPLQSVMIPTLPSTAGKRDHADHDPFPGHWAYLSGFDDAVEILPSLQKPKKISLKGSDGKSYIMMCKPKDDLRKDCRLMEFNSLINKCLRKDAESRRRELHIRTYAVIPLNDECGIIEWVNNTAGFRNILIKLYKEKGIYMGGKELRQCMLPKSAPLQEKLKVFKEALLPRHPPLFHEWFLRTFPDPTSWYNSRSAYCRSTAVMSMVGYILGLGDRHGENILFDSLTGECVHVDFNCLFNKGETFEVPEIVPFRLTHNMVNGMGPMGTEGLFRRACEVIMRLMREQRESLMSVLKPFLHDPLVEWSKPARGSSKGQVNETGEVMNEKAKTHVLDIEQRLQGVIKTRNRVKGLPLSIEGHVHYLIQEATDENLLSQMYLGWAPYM

Biological target: T1, Xenopus Mcm10 (Xenopus laevis (endogenous in egg extract)) (UniProt Q5EAW4)
T1 sequence: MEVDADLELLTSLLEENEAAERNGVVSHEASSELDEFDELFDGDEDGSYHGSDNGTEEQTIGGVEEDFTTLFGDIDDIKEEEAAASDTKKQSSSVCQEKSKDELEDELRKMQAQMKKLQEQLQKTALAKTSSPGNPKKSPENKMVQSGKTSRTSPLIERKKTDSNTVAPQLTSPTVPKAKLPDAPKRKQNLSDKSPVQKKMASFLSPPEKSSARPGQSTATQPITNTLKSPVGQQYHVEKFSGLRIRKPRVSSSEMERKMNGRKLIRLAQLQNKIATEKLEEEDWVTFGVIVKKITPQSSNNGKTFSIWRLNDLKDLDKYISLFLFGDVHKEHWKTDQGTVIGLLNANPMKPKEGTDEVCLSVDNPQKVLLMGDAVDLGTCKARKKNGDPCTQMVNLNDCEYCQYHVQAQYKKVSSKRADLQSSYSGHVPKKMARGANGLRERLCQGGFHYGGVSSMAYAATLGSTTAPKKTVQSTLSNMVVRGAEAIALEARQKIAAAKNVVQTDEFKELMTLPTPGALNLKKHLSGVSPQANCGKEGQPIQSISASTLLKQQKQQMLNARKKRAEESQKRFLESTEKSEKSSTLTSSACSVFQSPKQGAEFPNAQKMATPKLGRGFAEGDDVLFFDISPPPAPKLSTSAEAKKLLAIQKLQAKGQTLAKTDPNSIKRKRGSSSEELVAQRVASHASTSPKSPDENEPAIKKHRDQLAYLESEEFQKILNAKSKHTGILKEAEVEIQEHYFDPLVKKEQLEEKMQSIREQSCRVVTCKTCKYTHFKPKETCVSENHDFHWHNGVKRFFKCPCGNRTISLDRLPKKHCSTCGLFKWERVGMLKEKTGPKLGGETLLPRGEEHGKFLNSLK
Assay: co-IP; chromatin isolated in S-phase (45 min) from Xenopus egg extract, with or without 50 uM camptothecin; DNA digested with Benzonase, sample sonicated; supernatant immunoprecipitated with Mcm10 antibody on protein G-Dynabeads, 1 h at 4°C; immunoblot

Question: ATR (from UniProt Q9DE14 1-2654) was tested. Which binding did it give?
Answer: binds

B1: Mre11 (protein, UniProt Q9W6K1 1-711)
chain: MSSSSSSLDDEDTFKILVATDIHLGFMEKDAVRGNDSFVAFDEILRLAQDNEVDFLLLGGDLFHDNKPSRRTLHICLEQLRKYCMGDRPIEFEVLSDQSVNFGYSKFPWVNYQDNNLNISLPVFSVHGNHDDPTGADALCALDILSSAGLVNHFGRATSVEKIDISPVLLQKGHSKIALYGLGSIPDERLYRMFVNKQVMMLRPREDESSWFNLFVIHQNRSKHGPTNYIPEQFLDEFLDLVIWGHEHECKIAPTRNEQQLFYVSQPGSSVATSLSPGEAEKKHVGLLRIKGKKMNMQKIPLQTVRQFFIEDLVLSDYPDIFNPDNPRVTQEIETFCIEKVEAMLDTAERERLGNPRQPDKPLIRLRVDYTGGFEPFNTLRFSQKFVDRTANPKDIIHFFRHKEQKDKKDSITINFGKIDSKPLLEGTTLRVEDLVKEYFKTAEKNVQLSLLTERGMGEAVQEFVDKEEKDALEELVKFQLEKTQRFLKERHIDAEEEKIDEEVRKFRETRKTNTNEEDEEVREAIQRARTHRSQAPDVEMSDEDDDALLRKVSLSDDEDVRASMPARGRGRGRARGGRGQSTTTRGTSRRGRGSASADQPSSGRATKATGKNMSILDAFKPSSRQPTARNVAKKTYSEDIEDDDSDLEEVSFTPSSVIESRRTSSTSTSYSRKSTQPQSQATKAHFFDDDDDEEDFDPFKKSGPSRRGRR
Question: How did the binding turn out when B1 was run?
Answer: binds
